Laboratory results from PubChem BioAssay AID2551 (National Center for Advancing Translational Sciences (NCATS), 2010).
The whole screen tested about 310,000 compounds, of which about 17,000 (5.5%) were called active. Inconclusive results, whose numbers are uncertain, are shown with a selection of clear calls. Calls follow the shape of the dose curve; as a rule, active = well fitted inhibition curve with a large enough effect; inconclusive = small, poorly fitted or top-dose-only effect, or effect the other way; inactive = no such curve, though single readings can be large or run the other way. A potency beside an inconclusive call is a rough fit, not a confirmed value.

Sequences of proteins named here, by UniProt entry; tags and fusion partners are left off. A change or cut given only in a name is not applied to a line headed by its entry.
UniProt P51450: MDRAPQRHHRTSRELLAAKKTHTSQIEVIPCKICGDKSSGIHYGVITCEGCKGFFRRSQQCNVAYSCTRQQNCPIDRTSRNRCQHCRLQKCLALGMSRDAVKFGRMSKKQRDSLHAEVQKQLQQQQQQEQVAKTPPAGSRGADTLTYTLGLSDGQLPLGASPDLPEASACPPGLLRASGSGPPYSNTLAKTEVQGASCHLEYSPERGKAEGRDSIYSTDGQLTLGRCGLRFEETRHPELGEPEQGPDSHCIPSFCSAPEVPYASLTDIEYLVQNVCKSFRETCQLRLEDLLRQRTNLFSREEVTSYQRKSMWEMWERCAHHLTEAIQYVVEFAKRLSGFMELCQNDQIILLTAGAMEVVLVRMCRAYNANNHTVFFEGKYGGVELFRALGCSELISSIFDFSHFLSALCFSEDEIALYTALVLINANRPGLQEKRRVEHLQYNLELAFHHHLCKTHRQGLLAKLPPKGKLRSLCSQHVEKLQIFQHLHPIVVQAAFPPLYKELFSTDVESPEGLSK

These compounds were tested against Nuclear receptor ROR-gamma (Mus musculus) (UniProt P51450) (assay: qHTS for inhibitors of ROR gamma transcriptional activity). Settings: Drosophila S2 Gal4-RORgamma UAS-luciferase reporter, 20 h; activity change, negative = inhibition: at 53.6 µM (top of the series).
Method in brief: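 In this cell-based reporter format, copper sulfate (700 uM final) drives Gal4–ROR gamma fusion expression from a metallothionein promoter in Drosophila Schneider cells; compounds preincubated 1 hr, reporter read after 20 hr at ambient temperature.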
% is scaled to controls: 0 for no effect and ±100 for the full control effect; potency is read from the fitted curve at half-maximal effect.
Also: nearly all actives have a fitted effect of over 60% in size.

Potency, active:
COCCN(C(=S)Nc1cccc(C)c1C)C(C)c1ccco1 (configuration not stated) 11.2 µM
COCCn1c(-c2ccccc2)cnc1N 11.2 µM
c1ccc(CSc2ccc(-c3ccccn3)nn2)cc1 7.94 µM
CCCCn1c(-c2csc3c2CCCC3)n[nH]c1=S 3.55 µM
CCOc1cccc(-c2cc(-c3n[nH]c(=S)n3CC)c3ccccc3n2)c1 0.126 µM
O=C(NC1=NCCS1)c1cc(-c2ccc(F)cc2)nc2ccccc12 10 µM
O=C(NC(=S)Nc1cccc2ncccc12)c1ccccc1 7.94 µM
Cc1cc(F)ccc1NC(=O)CCc1c(C)nn(-c2ccc(N3CCCCC3)nn2)c1C 8.91 µM

Potency, inconclusive:
S=c1[nH]nc(-c2ccccc2Cl)n1/N=C/C=C/c1ccco1 0.0355 µM [inhibitor, partial curve]
N#C/C(=C\c1ccc(O)c(O)c1)C(=O)N1CCCC1 35.5 µM [inhibitor, single point]
O=C(Nc1nccs1)c1cc(N2CCOCC2)nc2ccccc12 14.1 µM [inhibitor, single point]
N#CCCn1cc(C(=O)Nc2ccc([N+](=O)[O-])cc2)c(-c2cc3ccccc3o2)n1 35.5 µM [inhibitor, single point]
CCSc1oc(-c2cccs2)nc1S(=O)(=O)c1ccccc1 0.631 µM [activator, single point]
Cc1ccc(-n2c(SCC(=O)N3CCC(C(=O)O)CC3)nc3ccccc3c2=O)cc1C 35.5 µM [inhibitor, single point]
O=c1c2ccccc2[nH]c(=S)n1Cc1cccnc1 31.6 µM [inhibitor, single point]
Nc1ccc(C(=O)N/N=C/c2sc(N3CCOCC3)nc2-c2ccccc2)cc1 35.5 µM [inhibitor, single point]
CCCc1cc(=O)oc2cc(C)cc(OC(=O)c3ccco3)c12 8.91 µM [activator, partial curve, poor fit]
C=CCNC(=S)NNC(=O)c1ccc(OCCC)cc1 6.31 µM [inhibitor, partial curve, poor fit]
Cc1ccc(NC(=O)N(Cc2ccc3c(c2)OCO3)Cc2cc3cc4c(cc3[nH]c2=O)OCCO4)cc1 20 µM [activator, single point]
CC(=O)Nc1c(O)nc(SCC(=O)Nc2ccc(C(C)=O)cc2)[nH]c1=O 8.91 µM [activator, partial curve]
COC(=O)Cc1ccc(NC(=S)N2CCN(C)CC2)cc1 12.6 µM [inhibitor, single point]
CC(C)c1ccc(NC(=O)C2CCCN(S(=O)(=O)c3cccnc3)C2)cc1 (configuration not stated) 15.8 µM [activator, partial curve]
CCCc1cc(C(=O)Nc2ccc(C(=O)c3ccc(F)cc3)cc2)n(C)n1 8.91 µM [activator, partial curve]
C=CCOc1ccc(C=Nc2cccc(Cl)c2)c(O)c1 15.8 µM [inhibitor, single point]
CCOC(=O)CNC(=O)c1ccc(C#CC2(O)CCCCC2)cc1 22.4 µM [activator, single point]
COc1cc(NC(=O)C2CC(c3cccc(Br)c3)=NO2)cc(OC)c1OC (configuration not stated) 17.8 µM [activator, partial curve]
O=C(COc1ccc(CO)cc1)Nc1ccc(F)cc1 35.5 µM [activator, single point]
COc1ccc(-n2c(SC3CCOC3=O)nc3ccccc3c2=O)cc1OC (configuration not stated) 10 µM [inhibitor, partial curve]
CCC(C)C(NC(=O)c1ccccc1NC(=O)c1ccco1)C(=O)NNC(=O)c1ccc(OC)cc1 (configuration not stated) 35.5 µM [inhibitor, single point]
Cc1ccc(S(=O)(=O)N2CCN(Cc3nc4ccccc4n3C)CC2)cc1 11.2 µM [inhibitor, partial curve, poor fit]
CC1=CC(=O)OC1Cc1ccc2ccccc2n1 (configuration not stated) 5.01 µM [inhibitor, single point]
CCn1c(C)cc(/C=C2/SC(=S)N(CC(=O)O)C2=O)c1C 8.91 µM [inhibitor, partial curve]
CCCCCn1c(CCCNC(=O)CC)nc2ccccc21 1.78 µM [activator, single point]
COc1ccc(C(CC(=O)Nc2ccc(F)cc2)c2ccccc2)cc1 (configuration not stated) 3.16 µM [activator, full curve]

2 compounds picked at random from those above:
Potency, inconclusive:
COc1ccc(-n2c(SC3CCOC3=O)nc3ccccc3c2=O)cc1OC (configuration not stated) 10 µM [inhibitor, partial curve]
CCCCCn1c(CCCNC(=O)CC)nc2ccccc21 1.78 µM [activator, single point]

Next part:

Activity change, negative = inhibition, inactive:
CC(=O)NC12CC3CC(C1)CC(C(=O)N1CCN(S(=O)(=O)c4cccc(F)c4)CC1)(C3)C2 -10.8%
Cc1cc(N)n(-c2ccc(Oc3ccccc3)c(S(=O)(=O)O)c2)n1 15.4%
O=C(CSc1nnc(-c2ccco2)o1)N1CCN(c2ccccc2)CC1 30.5%
Nc1cccc(Nc2ncnc3ccccc23)c1 3.5%
COCC(=O)N1CCC2(CC1)CN(c1cccc(-c3ccccc3)c1)C2 9.25%
CCCCOC(=O)c1[nH]c(C)c(C(=O)OC)c1C 7.72%
O=C(CCN1CCN(C/C=C/c2ccccc2)CC1)Nc1ccccc1 1.01%
Cc1cc(C(=O)Nc2sccc2C#N)c2ccccc2n1 19.3%
CCOc1ccc(N2C(=O)Nc3ccccc3C2(O)C(=O)N2CCN(c3ccccn3)CC2)cc1 (configuration not stated) 19.5%
CCN1C(C)=C(C(=O)OC)C(c2ccccc2)N2C(=O)[C@](O)(C(=O)OC)CC(C#N)=C12 (some centres not stated) -16.2% [at 10 µM]
Cc1ccc(-n2cc(C(=O)c3ccc(N4CCN(C)CC4)cc3)nn2)cc1Cl -2.26%
CCN(CC)C(=O)Oc1cc(=O)n2c3c(cccc13)CCC2 42.8%
COc1ccc(CN2CCNC(=O)C2CC(=O)NCc2cc(C)n(C)n2)c(F)c1 (configuration not stated) 16.7%
